Compound in the assay: Nc1nc2c(ncn2[C@@H]2O[C@H](COP(=O)(O)OP(=O)(O)OP(=O)(O)O)[C@@H](O)[C@H]2O)c(=O)[nH]1 [guanosine triphosphate]
Nature of the assay: NP40-soluble protein abundance relative to vehicle (solubility fold change) (ratio); higher = more soluble protein in presence of GTP. Here is the method: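 Solubility proteome profiling in Jurkat crude lysate. Lysate was treated with Mg-GTP (0.1-10 mM) for 10 min at room temperature and 3 min at 37 °C, then solubilised with 0.8% NP40 and benzonase, followed by ultracentrifugation. Proteins were quantified by TMT10 LC-MS/MS; the value is the NP40-soluble abundance relative to the NP40-processed vehicle, from 3 independent experiments.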

Sequences of proteins named here, by UniProt entry; tags and fusion partners are left off. A change or cut given only in a name is not applied to a line headed by its entry.
UniProt P10746: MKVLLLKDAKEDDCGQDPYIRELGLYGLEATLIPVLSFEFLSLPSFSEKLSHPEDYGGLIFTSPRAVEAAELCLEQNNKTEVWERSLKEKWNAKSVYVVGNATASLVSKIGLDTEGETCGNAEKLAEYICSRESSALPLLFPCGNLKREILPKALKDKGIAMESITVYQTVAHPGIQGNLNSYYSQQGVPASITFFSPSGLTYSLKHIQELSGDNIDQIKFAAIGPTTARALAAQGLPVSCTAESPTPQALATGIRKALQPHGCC
UniProt P11216: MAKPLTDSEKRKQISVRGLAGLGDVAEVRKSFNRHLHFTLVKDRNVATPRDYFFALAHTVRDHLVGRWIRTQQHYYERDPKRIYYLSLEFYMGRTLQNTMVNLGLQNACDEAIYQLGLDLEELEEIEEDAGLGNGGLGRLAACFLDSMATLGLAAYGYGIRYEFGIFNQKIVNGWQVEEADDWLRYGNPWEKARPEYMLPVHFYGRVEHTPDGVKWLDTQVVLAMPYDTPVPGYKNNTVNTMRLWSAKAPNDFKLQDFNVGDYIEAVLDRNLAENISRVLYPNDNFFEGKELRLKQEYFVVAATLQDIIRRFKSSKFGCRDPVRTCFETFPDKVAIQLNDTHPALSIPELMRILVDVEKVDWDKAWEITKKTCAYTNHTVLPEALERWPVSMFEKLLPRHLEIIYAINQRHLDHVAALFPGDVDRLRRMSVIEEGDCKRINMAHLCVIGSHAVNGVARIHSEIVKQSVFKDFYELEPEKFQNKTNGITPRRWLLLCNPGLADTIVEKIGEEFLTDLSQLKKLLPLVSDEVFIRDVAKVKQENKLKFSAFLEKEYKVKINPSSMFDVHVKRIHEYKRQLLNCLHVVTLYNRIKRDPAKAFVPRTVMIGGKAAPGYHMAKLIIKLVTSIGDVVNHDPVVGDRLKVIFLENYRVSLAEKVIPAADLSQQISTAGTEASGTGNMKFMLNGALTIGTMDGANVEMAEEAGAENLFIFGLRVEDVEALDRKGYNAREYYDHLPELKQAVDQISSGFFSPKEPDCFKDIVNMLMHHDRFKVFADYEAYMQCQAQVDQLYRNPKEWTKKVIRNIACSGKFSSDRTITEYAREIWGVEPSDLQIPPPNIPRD
UniProt P09110: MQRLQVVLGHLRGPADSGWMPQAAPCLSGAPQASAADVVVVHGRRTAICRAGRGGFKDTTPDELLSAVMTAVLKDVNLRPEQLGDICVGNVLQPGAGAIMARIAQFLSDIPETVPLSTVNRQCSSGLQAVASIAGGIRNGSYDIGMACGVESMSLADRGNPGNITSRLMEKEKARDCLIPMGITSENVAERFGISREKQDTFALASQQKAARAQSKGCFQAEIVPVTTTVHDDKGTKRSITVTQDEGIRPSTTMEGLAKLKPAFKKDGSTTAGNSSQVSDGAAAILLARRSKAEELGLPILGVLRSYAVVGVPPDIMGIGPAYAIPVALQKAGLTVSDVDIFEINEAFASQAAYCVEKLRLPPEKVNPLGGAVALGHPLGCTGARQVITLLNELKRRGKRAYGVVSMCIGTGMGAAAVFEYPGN
UniProt P22059, whole entry: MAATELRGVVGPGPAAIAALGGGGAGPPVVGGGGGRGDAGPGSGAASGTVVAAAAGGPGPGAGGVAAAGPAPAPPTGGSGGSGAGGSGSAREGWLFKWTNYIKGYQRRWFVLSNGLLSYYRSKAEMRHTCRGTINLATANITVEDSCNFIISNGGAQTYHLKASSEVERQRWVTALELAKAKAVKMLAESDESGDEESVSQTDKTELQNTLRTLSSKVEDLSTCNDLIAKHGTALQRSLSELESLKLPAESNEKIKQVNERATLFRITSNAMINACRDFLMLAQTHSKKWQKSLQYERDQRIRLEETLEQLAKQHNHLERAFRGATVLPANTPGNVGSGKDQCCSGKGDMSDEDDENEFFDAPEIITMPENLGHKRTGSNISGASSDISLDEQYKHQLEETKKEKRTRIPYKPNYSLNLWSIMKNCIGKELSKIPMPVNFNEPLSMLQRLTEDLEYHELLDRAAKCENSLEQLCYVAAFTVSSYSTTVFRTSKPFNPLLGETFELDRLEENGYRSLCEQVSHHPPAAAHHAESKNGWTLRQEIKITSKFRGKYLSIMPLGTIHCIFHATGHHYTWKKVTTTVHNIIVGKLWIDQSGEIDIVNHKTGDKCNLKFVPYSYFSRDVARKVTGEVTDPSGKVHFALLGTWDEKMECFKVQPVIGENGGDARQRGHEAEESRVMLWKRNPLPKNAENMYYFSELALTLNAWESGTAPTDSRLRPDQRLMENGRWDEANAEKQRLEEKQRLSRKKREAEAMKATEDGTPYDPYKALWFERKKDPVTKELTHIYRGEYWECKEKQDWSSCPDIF
UniProt P21580: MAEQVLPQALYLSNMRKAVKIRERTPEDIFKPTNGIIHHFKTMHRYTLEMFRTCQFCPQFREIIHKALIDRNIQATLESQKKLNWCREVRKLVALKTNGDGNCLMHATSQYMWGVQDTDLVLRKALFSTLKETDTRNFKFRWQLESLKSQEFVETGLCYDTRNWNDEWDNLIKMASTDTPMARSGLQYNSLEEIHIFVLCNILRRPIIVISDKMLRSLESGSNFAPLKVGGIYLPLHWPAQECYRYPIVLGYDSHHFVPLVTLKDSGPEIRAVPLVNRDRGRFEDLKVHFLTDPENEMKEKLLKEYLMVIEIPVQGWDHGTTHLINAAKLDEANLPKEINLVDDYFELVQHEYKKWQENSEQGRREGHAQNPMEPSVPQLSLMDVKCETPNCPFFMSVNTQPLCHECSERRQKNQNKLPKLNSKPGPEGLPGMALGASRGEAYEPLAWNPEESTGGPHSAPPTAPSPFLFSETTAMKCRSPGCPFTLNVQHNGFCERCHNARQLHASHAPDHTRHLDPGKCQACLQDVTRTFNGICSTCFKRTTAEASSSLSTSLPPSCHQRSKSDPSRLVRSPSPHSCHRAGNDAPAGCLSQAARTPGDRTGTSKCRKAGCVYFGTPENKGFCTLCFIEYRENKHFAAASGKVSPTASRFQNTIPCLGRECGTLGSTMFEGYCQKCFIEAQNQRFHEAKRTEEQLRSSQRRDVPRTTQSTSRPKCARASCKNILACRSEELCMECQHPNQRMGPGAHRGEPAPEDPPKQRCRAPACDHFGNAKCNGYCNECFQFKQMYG

Data on 5 targets can be found in the supplement of paper PMC6411743.

± gives the standard deviation of the averaged measurements. Some of the results follow.

As to UROS (UniProt P10746), the NP40-soluble protein abundance (concentration: 0.1mM) came to 0.991 ± 0.06; the NP40-soluble protein abundance (concentration: 0.5mM) is 0.98 ± 0.032; the NP40-soluble protein abundance (concentration: 1mM) is 0.986 ± 0.038; the NP40-soluble protein abundance (concentration: 2mM) was determined as 0.963 ± 0.086; the NP40-soluble protein abundance (concentration: 4mM) was determined as 0.939 ± 0.13; the NP40-soluble protein abundance (concentration: 6mM) came to 0.941 ± 0.13. For the same target, the NP40-soluble protein abundance reads like this: (concentration: 8mM) 0.94 ± 0.083; (concentration: 10mM) 0.935 ± 0.1.
For PYGB (UniProt P11216), the NP40-soluble protein abundance (concentration: 0.1mM) was determined as 1.11 ± 0.12; the NP40-soluble protein abundance (concentration: 0.5mM) worked out at 1.19 ± 0.21; the NP40-soluble protein abundance (concentration: 1mM) is 1.2 ± 0.28; the NP40-soluble protein abundance (concentration: 2mM) came out at 1.45 ± 0.5; the NP40-soluble protein abundance (concentration: 4mM) came out at 1.71 ± 0.63; the NP40-soluble protein abundance (concentration: 6mM) was 1.78 ± 0.69. Moreover, the NP40-soluble protein abundance is 1.75 ± 0.61 (concentration: 8mM) and 1.79 ± 0.67 (concentration: 10mM).
As to UniProt P09110 and related entries, the NP40-soluble protein abundance (concentration: 0.1mM) came out at 1 ± 0.062; the NP40-soluble protein abundance (concentration: 0.5mM) was determined as 0.987 ± 0.054; the NP40-soluble protein abundance (concentration: 1mM) was found to be 0.949 ± 0.061; the NP40-soluble protein abundance (concentration: 2mM) was 0.918 ± 0.039; the NP40-soluble protein abundance (concentration: 4mM) was found to be 0.946 ± 0.042; the NP40-soluble protein abundance (concentration: 6mM) turned out to be 0.903 ± 0.044. Also, the NP40-soluble protein abundance (concentration: 8mM) was determined as 0.91 ± 0.076 and the NP40-soluble protein abundance (concentration: 10mM) was 0.888 ± 0.083.
Regarding OSBP (UniProt P22059), the NP40-soluble protein abundance (concentration: 0.1mM) came to 0.982 ± 0.02; the NP40-soluble protein abundance (concentration: 0.5mM) was 1 ± 0.026; the NP40-soluble protein abundance (concentration: 1mM) stood at 0.94 ± 0.033; the NP40-soluble protein abundance (concentration: 2mM) was 0.932 ± 0.018; the NP40-soluble protein abundance (concentration: 4mM) was found to be 0.906 ± 0.037; the NP40-soluble protein abundance (concentration: 6mM) is 0.935 ± 0.034. Moreover, the NP40-soluble protein abundance by setting is: (concentration: 8mM) 0.932 ± 0.024; (concentration: 10mM) 0.896 ± 0.043.
Take TNFAIP3 (UniProt P21580): the NP40-soluble protein abundance (concentration: 0.1mM) was determined as 1.112 ± 0.011; the NP40-soluble protein abundance (concentration: 0.5mM) amounted to 1.06 ± 0.038; the NP40-soluble protein abundance (concentration: 1mM) came out at 1.05 ± 0.047; the NP40-soluble protein abundance (concentration: 2mM) was determined as 1.06 ± 0.038; the NP40-soluble protein abundance (concentration: 4mM) is 1.12 ± 0.041; the NP40-soluble protein abundance (concentration: 6mM) turned out to be 1.02 ± 0.025. Moreover, the NP40-soluble protein abundance is, setting by setting: (concentration: 8mM) 1.02 ± 0.071; (concentration: 10mM) 1.03 ± 0.047.
